Assay results reported in paper PMC10443802 (JCI Insight, 2023).

System: OATP1B2
Assay: Untargeted metabolomics of plasma and DRG, WT vs OATP1B2-deficient mice
Assay type: in vivo, mouse
[1] = supplement sheet "Figure 5B" (volcano plot)
[2] = Figure 5B source data (volcano plot), log2 fold change of metabolite level

Substance | Log2FoldChange [1] | Log2FoldChange (sheet "Figure 5C") | further results
2-hydroxystearate | – | – | Log2FoldChange (supplement sheet "Figure 5B"): 0.01436
4-ethylcatechol sulfate | 0.9486 | – | –
13-HODE + 9-HODE | 0.251 | – | –
(N(1) + N(8))-acetylspermidine | – | 0.189 | –
S-carboxymethyl-L-cysteine | – | – | Log2FoldChange (supplement sheet "Figure 5B"): 0.2141
S-methylcysteine | – | -0.1681 | Log2FoldChange [2]: -0.4941
S-methylcysteine sulfoxide | – | – | Log2FoldChange [2]: -0.3401
benzoate | – | 0.2141 | –
dihomo-linolenate (20:3n3 or n6) | – | 0.251 | –
dimethylarginine (SDMA + ADMA) | – | 0.189 | –
enterolactone sulfate | 1.774 | – | –
equol sulfate | 1.367 | – | –
fumarate | 0.2141 | -0.152 | –
gentisate | – | – | Log2FoldChange [2]: -0.304
gluconate | – | 0.3334 | –
hippurate | 0.4751 | 0.6229 | –
lactate | – | -0.2345 | Log2FoldChange (supplement sheet "Figure 5B"): 0.1763
linolenate [alpha or gamma; (18:3n3 or 6)] | – | – | Log2FoldChange (supplement sheet "Figure 5B"): -0.1203
maleate | 0.3674 | – | –
maltotetraose | 0.2869 | – | –
oleoyl-arachidonoyl-glycerol (18:1/20:4) [2]* | 0.3334 | -0.4344 | –
sphingomyelin (d17:1/14:0, d16:1/15:0)* | 0.4005 | – | –
sphingomyelin (d18:1/20:0, d16:1/22:0)* | – | -0.4941 | Log2FoldChange [2]: -0.1681
tartarate | – | – | Log2FoldChange [2]: -0.3959
taurocholenate sulfate* | 0.3674 | – | –
tetradecadienedioate (C14:2-DC)* | 1.0635 | – | –
